The values below come from paper PMC6255761.

Chains of the proteins cited; added tags and fusions are not shown.
UniProt Q6IAA8: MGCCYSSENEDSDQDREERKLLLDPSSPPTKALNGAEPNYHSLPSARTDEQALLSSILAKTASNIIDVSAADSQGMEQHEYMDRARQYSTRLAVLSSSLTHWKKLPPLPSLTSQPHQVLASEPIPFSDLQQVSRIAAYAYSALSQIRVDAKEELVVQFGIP
UniProt Q9Y2Q5: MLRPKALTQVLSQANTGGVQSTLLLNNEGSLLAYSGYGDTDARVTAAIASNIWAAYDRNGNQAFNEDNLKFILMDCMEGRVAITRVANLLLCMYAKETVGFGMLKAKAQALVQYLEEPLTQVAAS
UniProt Q9UHA4: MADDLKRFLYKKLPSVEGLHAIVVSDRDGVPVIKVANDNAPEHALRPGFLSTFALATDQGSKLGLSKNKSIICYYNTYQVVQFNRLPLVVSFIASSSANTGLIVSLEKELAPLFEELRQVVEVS

The target in assay [1] is T1, GST-Arl5b-QL (UniProt Q96KC2).
T1 sequence: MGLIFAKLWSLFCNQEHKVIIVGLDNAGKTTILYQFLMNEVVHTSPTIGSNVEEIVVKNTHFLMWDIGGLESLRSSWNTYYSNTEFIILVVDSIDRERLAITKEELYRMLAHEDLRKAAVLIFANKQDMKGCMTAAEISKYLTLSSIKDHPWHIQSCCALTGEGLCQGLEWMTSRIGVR
Nature of the assay: pull-down; bead-immobilized GST-Arl5b-TN or -QL incubated with HEK293T lysates expressing individual GFP- or Myc-tagged Lamtor constructs; blots against the tags; only the target purified.

The target of assay [2] is Lamtor1-Myc (UniProt Q6IAA8). Nature of the assay: co-IP; forward and reverse co-IPs from HEK293T lysates co-expressing C-terminally GFP-tagged and Myc-tagged proteins; blots against the tags.

Results are given in words; binding and its absence hold for the method and conditions named. In cells and extracts the contact can be indirect. Some entries that bind do so weakly or less than the wild type. Sequences can lack the tags named with a protein.

Turning to “Myc-tagged Lamtor2 (from UniProt Q9Y2Q5 1-125)”, the binding result in assay [1] is given as “no binding”. “Myc-tagged Lamtor3 (from UniProt Q9UHA4 1-124)”: in assay [1], the binding result is listed as “no binding”.

B1: Arl5b-QL-GFP (protein, UniProt Q96KC2 1-179)
chain: MGLIFAKLWSLFCNQEHKVIIVGLDNAGKTTILYQFLMNEVVHTSPTIGSNVEEIVVKNTHFLMWDIGGLESLRSSWNTYYSNTEFIILVVDSIDRERLAITKEELYRMLAHEDLRKAAVLIFANKQDMKGCMTAAEISKYLTLSSIKDHPWHIQSCCALTGEGLCQGLEWMTSRIGVR
B1: in assay [2], the binding entry is “binds”.

B2: Arl5b-TN-GFP (protein, UniProt Q96KC2 1-179)
chain: MGLIFAKLWSLFCNQEHKVIIVGLDNAGKNTILYQFLMNEVVHTSPTIGSNVEEIVVKNTHFLMWDIGGQESLRSSWNTYYSNTEFIILVVDSIDRERLAITKEELYRMLAHEDLRKAAVLIFANKQDMKGCMTAAEISKYLTLSSIKDHPWHIQSCCALTGEGLCQGLEWMTSRIGVR
For the molecule B2, the binding entry in assay [2] was “binds”.
